Experimental data: PubChem BioAssay AID602203 (INSERM, 2012)
In all, the deposit lists 999 reagents; below is a part drawn at random. In the full data, 85 (8.5%) are marked active. 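Unclear how single-siRNA scores of -1, 0 or +1 give the printed -4 to 4 range; calls lie near -3 or 3 and beyond.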 Not given: the amount of reagent, the time to read-out, the dose of the treatment.

Purpose: 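Follow-up of knock-downs that sensitize or protect A549 cells against cisplatin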 (follow-up of hits)
Cell system: human A549 lung cancer cells
Reagent: siRNA pair against human genes
Challenge: cisplatin at a dose killing half of control-siRNA cells, given 48 h after transfection
Read-out: 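Cisplatin at a dose killing 50% of control cells, 48 h post-transfection; each siRNA +1 protective, -1 sensitizing, 0 if toxic (LDH) or antiproliferative (WST-1); per-gene sum and mean death change versus control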
Reading the numbers: summed siRNA score for cisplatin death: higher = more siRNAs reduced cisplatin-induced cell death; change in cisplatin death versus control: higher = fewer cells died than in control
Rule for the call: In these data the active calls have summed siRNA score for cisplatin death at about -3 or lower, or at about 3 or higher

no.	Gene	summed siRNA score for cisplatin death	change in cisplatin death versus control (percentage points)	activity call
1	CASC2	1		inactive
2	NANOS1	-3	-12	active
3	KRT10	2		inactive
4	EBP	-3	-10.3	active
5	BRIP1	1		inactive
6	RPP38	0		inactive
7	KIF2C	1		inactive
8	NR2F1	2		inactive
9	CRHR1	-2		inactive
10	PLAAT3	0		inactive
11	IL21	-2		inactive
12	TPCN1	0		inactive
13	LOC387705	1		inactive
14	FAM230I	3	13.5	active
15	NOTCH3	0		inactive
16	RRAGB	0		inactive
17	SLC6A5	0		inactive
18	COX5B	3	10.6	active
19	INS	-1		inactive
20	DHDDS	0		inactive
21	ABCA9	0		inactive
22	AK5	-1		inactive
23	ADCYAP1R1	-1		inactive
24	PARD3B	0		inactive
25	LOC441781	-1		inactive
26	PKN3	1		inactive
27	CREM	-1		inactive
28	LOC391426	2		inactive
29	SSTR5	1		inactive
30	GPHRB	-1		inactive
31	LTBP3	-2		inactive
32	DNER	1		inactive
33	SEMG2	-3	-10.6	active
34	RBMS2	-1		inactive
35	COQ3	-1		inactive
36	RAB14	0		inactive
37	ERV3-1	0		inactive
38	LOC442022	1		inactive
39	ABCA8	-2		inactive
40	RNF26	3	14.5	active
41	NEXMIF	0		inactive
42	TXK	-2		inactive
43	LOC441470	1		inactive

5 entries from above, reformatted:
{"Gene":"ABCA9","summed siRNA score for cisplatin death":0,"activity call":"inactive"}
{"Gene":"AK5","summed siRNA score for cisplatin death":-1,"activity call":"inactive"}
{"Gene":"ADCYAP1R1","summed siRNA score for cisplatin death":-1,"activity call":"inactive"}
{"Gene":"PARD3B","summed siRNA score for cisplatin death":0,"activity call":"inactive"}
{"Gene":"LOC441781","summed siRNA score for cisplatin death":-1,"activity call":"inactive"}
